The record followed here is PubChem BioAssay AID445 (National Center for Advancing Translational Sciences (NCATS), 2006).

This is one part of the list. Further columns of the screen follow, without active or inactive calls. Most of these compounds were active or inconclusive in the main read-out, so they are no random draw. Words in brackets tell the shape of the fitted curve; partial curves, single points and poor fits give uncertain potencies.

The assay can be described thus: IkB Signaling. The note with it: ABC-DLBCL IkBa-CBG/CBR dual luciferase ratio (green luciferase fused to IkBa over red control in OCI-Ly3 lymphoma cells), 4 h. In a few lines: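 In this assay, an IκBα–CBG68 fusion accumulates when IKK-driven degradation is blocked; native CBR normalizes for cell number. OCI-Ly3 cells were treated 4 h with compound and doxycycline, then green and red light read after Chroma-Glo addition.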
Where [1] appears, read: measured here: control luc red channel unless noted.

For orientation: AC50 means the midpoint of the concentration-response curve, whichever way the signal moves.

Take `O=C1c2ccccc2-c2onc3c(NCCO)cc(NC4CCCCC4)c1c23`: the half-maximal activity concentration (AC50) under setting [1] was 20 µM [falling, partial curve].

For `COc1ccc(C(CNC(=O)COc2cc(C)cc(C)c2)N2CCOCC2)cc1` (stereo not drawn), under setting [1], the AC50 was 39.8 µM [falling, single point].

With `Cn1nccc1C(=O)NCc1ccc2c(c1)CCN2C(=O)c1ccc(Cl)cc1`, the AC50 under setting [1] is 10 µM [falling, partial curve].

As for `COc1ccc(N2CCN(c3csc4ccccc4c3=O)CC2)cc1`, the AC50 under setting [1] was 31.6 µM [falling, single point].

Turning to `CCc1ccccc1NC(=O)C1CCCN(c2cnccn2)C1` (stereo not drawn), the AC50 under setting [1] is 1.58 µM [falling, partial curve, poor fit].

As to `Cc1ccc(NC(=O)CSc2nc(=O)cc(N)n2CCc2ccccc2)cc1`, under setting [1], the half-maximal activity concentration (AC50) is 31.6 µM [falling, partial curve].

On to `COc1ccccc1OCC(=O)Nc1c(C(=O)c2ccc(F)cc2)oc2ccccc12`, for which the AC50 under setting [1] is 0.398 µM [rising, partial curve].

With `COc1ccc(NC(=O)C(NC(=O)/C=C\c2ccc3c(c2)OCO3)c2ccccc2)cc1` (stereo not drawn), the AC50 under setting [1] was 31.6 µM [falling, single point].

`O=C(CSc1c2c(nc3cc(Cl)ccc13)CCCC2)NCc1ccccc1Cl`: the AC50 under setting [1] is 39.8 µM [falling, single point].

As for `COc1ccc(C2N3CC4(C)CN2CC(c2ccccc2)(C3)C4=O)cc1OC` (stereo not drawn), the AC50 under setting [1] was 20 µM [falling, partial curve].

As for `COc1ccc(C2CC(=O)c3cc(-c4nc(-c5cccc([N+](=O)[O-])c5)cs4)c(=O)n(-c4ccc(OC)cc4)c3C2)cc1` (stereo not drawn), the AC50 under setting [1] is 0.01 µM [falling, full curve].

For the compound `CCc1ccc(S(=O)(=O)c2nnn3c2nc(NCCNC(C)=O)c2cc(Cl)ccc23)cc1`, the AC50 under setting [1] is 15.8 µM [falling, single point].

As for `COc1ccc(CCN2C(=O)CN(C3CCC(C)CC3)C(=O)C2c2ccc(OC(C)C)c(OC)c2)cc1OC` (stereo not drawn), the AC50 under setting [1] was 0.501 µM [falling, full curve].

Consider `Cc1ccccc1C(=O)c1cccn1CC(=O)NCc1cccc(Cl)c1`, for which the AC50 under setting [1] was 20 µM [falling, single point].

Turning to `Cn1c(SCc2ccccc2F)nc2c([nH]c3ccccc32)c1=O`, under setting [1], the AC50 is 0.794 µM [rising, full curve].

In the case of `COCCN(CCOC)c1ncnc2c1c(-c1ccccc1)cn2-c1ccc(C)c(Cl)c1`, under setting [1], the AC50 is 3.98 µM [rising, partial curve, poor fit].

Turning to `CCCCNC(=O)C(CC)Sc1nc2ccccc2c(=O)n1CCc1ccc(OC)c(OC)c1` (stereo not drawn), under setting [1], the AC50 is 3.16 µM [rising, partial curve, poor fit].

Regarding `CCOC(=O)c1ccc(NC(=O)c2nn(C)c3c2COc2ccccc2-3)cc1`, under setting [1], the AC50 was 6.31 µM [falling, partial curve].

With `CC(C)c1ccc(OCc2cc(=O)n3c(-c4ccccc4)csc3n2)cc1`, under setting [1], the AC50 is 2 µM [rising, partial curve].

`CN1CCN(C(CNC(=O)C(=O)Nc2cccc(Cl)c2)c2ccc3c(c2)OCO3)CC1` (stereo not drawn): the AC50 under setting [1] was 7.94 µM [falling, partial curve, poor fit].

With `CC1=C(C(=O)Nc2ccc(C)cc2C)C(c2ccccc2F)n2nc(SCC(=O)c3ccc(C)cc3)nc2N1` (stereo not drawn), the AC50 under setting [1] was 39.8 µM [falling, single point].

As to `CCc1ccc(NC(=O)c2cnc3sc(N4CCCC4)nn3c2=O)cc1`, the AC50 under setting [1] was 3.98 µM [rising, partial curve].

With `COc1ccccc1NC(=O)C1CCC(CNS(=O)(=O)c2ccc3c(c2)CC(C)N3C(C)=O)CC1` (stereo not drawn), under setting [1], the AC50 was 25.1 µM [falling, partial curve].

Turning to `Cc1noc(C)c1COC(=O)c1ccccc1Sc1ccccc1C#N`, the AC50 under setting [1] is 39.8 µM [falling, single point].

Take `CCc1ccc(NC(=O)Cn2c(-c3cncs3)nc3ccccc32)cc1`: under setting [1], the AC50 is 39.8 µM [falling, single point].

Turning to `CCn1c2ccccc2c2cc(CN3CCN(Cc4ccccc4C)CC3)ccc21`, under setting [1], the AC50 is 25.1 µM [falling, single point].

As to `O=C(c1ccc2c(c1)N(Cc1cccc(Cl)c1)C(=O)c1ccccc1S2)N1CCOCC1`, the AC50 under setting [1] was 39.8 µM [falling, partial curve].

Regarding `c1ccc(OCCn2c(COc3ccccc3)nc3ccccc32)cc1`, the AC50 under setting [1] is 1.26 µM [falling, partial curve].

In the case of `Cc1ccc(C(=O)COc2cccc(NC(=O)c3ccco3)c2)cc1`, the AC50 under setting [1] was 25.1 µM [falling, partial curve].

Regarding `O=C(NCC1CCCO1)C1CCCN(S(=O)(=O)c2cccc3nsnc23)C1` (stereo not drawn), the AC50 is, setting by setting: (measured here: IkB-luc green channel) 7.94 µM [rising, single point]; (measured here: control luc red channel) 6.31 µM [falling, partial curve].

Take `O=C1c2oc3ccccc3c(=O)c2C(c2cccc(Cl)c2)N1c1ccccn1` (stereo not drawn): the AC50 under setting [1] is 10 µM [falling, partial curve].

Regarding `CCOc1ccc(NC(=O)Cn2cc(C(=O)c3ccc(OCC)cc3)c(=O)c3cc4c(cc32)OCCO4)cc1`, the AC50 under setting [1] was 0.501 µM [rising, full curve, poor fit].

As to `Cc1ccc(CCNC(=O)c2cc3cc4cc(C)ccc4nc3s2)cc1`, under setting [1], the AC50 is 2.51 µM [falling, full curve].

Turning to `COc1cc(C2=NOC(C(=O)N3CCN(c4ccc(F)cc4)CC3)C2)cc(OC)c1OC` (stereo not drawn), the AC50 under setting [1] was 12.6 µM [falling, partial curve].

Turning to `COc1ccccc1Cn1c(CNS(=O)(=O)c2ccc(CC(C)C)cc2)nc2cccnc21`, the AC50 under setting [1] is 25.1 µM [falling, single point].

Take `COc1cccc(N2C(=O)C(CC(=O)Nc3ccc(F)cc3)N(CCC3=CCCCC3)C2=O)c1` (stereo not drawn): under setting [1], the AC50 is 20 µM [falling, partial curve].

For the compound `O=C1C2=C(Nc3ccccc3SC2c2ccc(Cl)c(Cl)c2)c2ccccc21` (stereo not drawn), the AC50 under setting [1] is 6.31 µM [falling, partial curve].

In the case of `COC(=O)Cc1c(C)c2cc3c(c(C)c2oc1=O)OCN(CCc1ccc(F)cc1)C3`, under setting [1], the AC50 is 15.8 µM [falling, single point].

In the case of `Nc1c(C(=O)NCc2ccc3c(c2)OCO3)nnn1CC(=O)Nc1ccc(Br)cc1`, the AC50 under setting [1] was 2 µM [falling, partial curve].

As to `CC(=O)N1CCCc2cc(S(=O)(=O)N3CCCC(C(=O)NCc4ccccc4)C3)ccc21` (stereo not drawn), the half-maximal activity concentration (AC50) under setting [1] was 0.2 µM [falling, full curve, poor fit].

For `CCc1ccc(-c2cc(C)no2)cc1S(=O)(=O)Nc1ccc(Cl)cn1`, the AC50 under setting [1] was 39.8 µM [falling, single point].

As for `Cc1ccc(Cn2cc(C(=O)c3ccc(C)cc3)c(=O)c3ccc(C)nc32)cc1`, the AC50 under setting [1] was 39.8 µM [falling, single point].

In the case of `Cn1c(COc2ccc(Cl)cc2)nnc1SCc1ncc(-c2ccccc2)o1`, the AC50 under setting [1] is 15.8 µM [falling, partial curve].

As to `COc1ccc(/C=C/C(=O)N2CCC(c3nc4ccccc4o3)CC2)cc1`, the AC50 under setting [1] was 0.158 µM [falling, full curve].

As to `CCOc1ccc(N(CC)S(=O)(=O)N2CCCC(C(=O)Nc3ccc(NC(C)=O)cc3)C2)cc1` (stereo not drawn), the AC50 under setting [1] was 20 µM [falling, single point].

For the compound `COc1cccc(C(=O)Nc2cc(-c3ccccc3)nn2-c2ccccc2)c1`, the AC50 under setting [1] was 31.6 µM [falling, single point].

In the case of `O=C(COc1ccc2oc3c(c2c1)CCCC3)Nc1ccc(Cl)cc1`, the AC50 under setting [1] was 12.6 µM [falling, partial curve].

As for `CCOc1ccc(-c2c(C)nn3c(-c4ccccc4)c(C(=O)NCCOC)cnc23)cc1OCC`, the AC50 under setting [1] was 20 µM [falling, single point].

Consider `O=C(Nc1ccc2c(c1)oc1ccccc12)c1cccnc1`, for which the AC50 under setting [1] was 20 µM [falling, single point].

For the compound `CC1CCC/C(=C\Nc2ccccc2C(=O)O)C1=O` (stereo not drawn), under setting [1], the AC50 is 12.6 µM [falling, partial curve].

As for `CCN(C(=O)Cn1c(SCC(=O)NCc2ccccc2)nc2ccccc21)c1cccc(C)c1`, the AC50 under setting [1] was 25.1 µM [falling, partial curve].

For the compound `Cc1ccc(-n2nc(C(=O)NCCc3cccc(C)c3)c3c4ccccc4n(C)c3c2=O)cc1`, the AC50 under setting [1] is 0.158 µM [falling, full curve, poor fit].

Turning to `COc1ccc(OC)c(CNC(=O)c2cc(-c3ccc(Cl)s3)nc3ccccc23)c1`, the AC50 under setting [1] was 3.16 µM [falling, full curve, poor fit].

For `COc1cc(-c2nc3n(n2)C(c2ccc(F)cc2)C(C(N)=O)=C(C)N3)cc(OC)c1OC` (stereo not drawn), the AC50 under setting [1] was 31.6 µM [falling, single point].

With `Cc1cc(C)n(-c2ncc(-c3ccccc3)nn2)n1`, the AC50 under setting [1] was 25.1 µM [falling, single point].

Turning to `Cc1ccc(N2C(=O)c3oc4cc(C)c(C)cc4c(=O)c3C2c2cccc(O)c2)nc1` (stereo not drawn), the AC50 under setting [1] is 12.6 µM [falling, partial curve].

For the compound `CCCN(CCC)C(=O)c1c[nH]c2ccc(S(=O)(=O)Nc3cc(C)cc(C)c3)cc2c1=O`, the half-maximal activity concentration (AC50) under setting [1] was 12.6 µM [falling, partial curve].

Regarding `COc1ccc(N2CCN(C(=O)CSc3nnnn3-c3ccc4c(c3)OCCO4)CC2)cc1`, the AC50 under setting [1] was 31.6 µM [falling, single point].

`CCOc1ccccc1-n1c(CN2CCN(C(=O)c3ccco3)CC2)nc2ccccc2c1=O`: the AC50 under setting [1] was 39.8 µM [falling, single point].

For `COc1ccc(C)cc1S(=O)(=O)Nc1cccc(-c2ccc(N3CCC(C)CC3)nn2)c1`, the AC50 under setting [1] was 3.98 µM [falling, partial curve].

In the case of `CCOc1cccc2cc(C(=O)N3CCN(C/C=C/c4ccccc4)CC3)c(=O)oc12`, the AC50 under setting [1] was 3.98 µM [falling, partial curve].

With `CCOC(=O)c1cc(S(=O)(=O)Nc2ccc(OC(F)(F)F)cc2)[nH]n1`, under setting [1], the AC50 was 20 µM [falling, partial curve].
